Among the data in PMC10625211 are binding values, retold here.

Results are given in words; binding and its absence hold for the method and conditions named. Binding seen in cells or lysates may run through a third protein. Some results given as binding are weak or reduced against the parent protein; the word gives no strength. Tags and fused reporters may be left off the sequences shown.

For this assay, the target named is T1, Flag-tagged APOL1-G0 (human) (UniProt O14791).
T1 sequence: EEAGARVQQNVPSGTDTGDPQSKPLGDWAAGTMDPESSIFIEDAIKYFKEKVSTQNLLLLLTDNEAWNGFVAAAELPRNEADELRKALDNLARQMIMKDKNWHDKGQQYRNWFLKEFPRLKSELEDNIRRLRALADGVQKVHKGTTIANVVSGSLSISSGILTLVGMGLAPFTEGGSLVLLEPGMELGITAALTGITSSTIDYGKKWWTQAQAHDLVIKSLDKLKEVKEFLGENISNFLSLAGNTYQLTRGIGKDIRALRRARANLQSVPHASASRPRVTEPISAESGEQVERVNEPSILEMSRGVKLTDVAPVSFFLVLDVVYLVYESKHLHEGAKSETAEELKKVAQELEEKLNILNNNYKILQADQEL
The experiment in a line: co-IP; HEK 293T cells co-transfected with Flag-tagged APOL1 variant (100 ng) and HA-tagged SNARE (900 ng), harvested 16 h after transfection; lysis in 50 mM Tris-HCl pH 7.4, 150 mM NaCl, 2 mM MgCl2, 0.5% Nonidet P-40; immunoprecipitation with anti-Flag M2 affinity gel, immunoblotting with Flag or HA antibody. In general terms: In western blotting, separated proteins are transferred to a membrane and probed.

B1: HA-tagged dSyb (protein, UniProt P18489 1-152)
chain: MENNEAPSPSGSNNNDFPILPPPPNANDNYNQFGDHQIRNNNAAQKKLQQTQAKVDEVVGIMRVNVEKVLERDQKLSELGERADQLEQGASQFEQQAGKLKRKQWWANMKMMIILGVIAVVLLIIVLVSVWPSSSDSGSGGGNKAITQAPPH
Take B1: the binding entry is “binds”.
